The list shows a part of the results.
These compounds were tested on T1, CTL2-GFP (C. trachomatis L2/434/Bu, GFP-expressing). Conditions: bulk GFP, single well; 28.5 h, 10 µM; inhibitor.
T1 construct: L2/434/Bu, GFP-expressing
Set-up: species or system HeLa; Intracellular C. trachomatis growth in HeLa cells, bulk GFP fluorescence relative to DMSO
With C=CCN(CC=C)CCOc1c(C)cc(C)cc1Br [CBK266070G] the “% of control remaining” value was 111.071%.
With O=C(NC1CCCC1)c1cc(=O)n(Cc2ccc(Cl)cc2)c2ccccc12 [CBK294464] the “% of control remaining” value was 166.395%.
CN(C)Cc1cc(-c2ccccc2F)nn1CCNC(=O)C1CCC1 [CBK283471] was tested, and the “% of control remaining” value was 158.906%.
For CC(=O)Nc1cc(C(=O)NCc2ccc(F)cc2)ccc1Sc1ccc(Cl)cc1 [CBK294468], the “% of control remaining” value was 131.885%.
For O=C(c1ccc(-n2ccnc2)c(-n2cccc2)c1)N1CCSCC1 [CBK285364], the “% of control remaining” value was 127.199%.
With O=C(CCCC1CCNCC1)Nc1nnc(C2CC2)s1 [CBK169224] the “% of control remaining” value was 121.507%.
In the case of COc1cc([N+](=O)[O-])ccc1NC(=S)NNS(=O)(=O)c1cc(Cl)c(Cl)cc1Cl [CBK266863], the “% of control remaining” value was 183.225%.
With CCN1CCCC1CNC(=O)c1cc(Br)cnc1N(C)S(C)(=O)=O (stereo not drawn) [CBK076520] the “% of control remaining” value was 98.7392%.
For N#Cc1c2c(c(Nc3ccc(C4CCCCC4)cc3)n3c1nc1ccccc13)CCC2 [CBK263122], the “% of control remaining” value was 108.092%.
With Cc1cc(C)n(CC(=O)Nc2nc(CN3CCC(C)CC3)cs2)n1 [CBK305592] the “% of control remaining” value was 105.744%.
In the case of O=S1(=O)CCN(Cc2ccc3c(c2)OCO3)CC1 [CBK074780], the “% of control remaining” value was 109.98%.
In the case of OCc1ccccc1-c1cncc(Nc2cccc(Cl)c2)n1 [CBK065400], the “% of control remaining” value was 104.702%.
CC(C)(C)O/N=C/c1cccnc1 [CBK015761C] was tested, and the “% of control remaining” value was 105.303%.
In the case of O=C(O)CNC(=O)c1ccc(S(=O)(=O)N2CCCC2)cc1 [CBK267434], the “% of control remaining” value was 122.823%.
In the case of N#CCCN(C(=O)NCCOc1ccccc1)C1CCCCC1 [CBK156374], the “% of control remaining” value was 175.275%.
In the case of CCc1nc2ccc(NC(=O)c3csc(C(C)=O)c3)cc2[nH]1 [CBK282538], the “% of control remaining” value was 83.0614%.
For O=C(CNc1ccc2ccccc2c1)N/N=C/c1cc2c(cc1[N+](=O)[O-])OCO2 [CBK261126], the “% of control remaining” value was 89.8477%.
For COc1nc2ccccc2nc1CCC(=O)O [CBK269356], the “% of control remaining” value was 146.238%.
In the case of CC(=O)Nc1cccc(-c2nc(-c3ccc(C#N)cc3)cnc2N)c1 [CBK113659], the “% of control remaining” value was 108.145%.
With O=C(Nc1ncnc2c1ccn2C1CC(O)C(CO)O1)c1ccccc1 (stereo not drawn) [CBK201289] the “% of control remaining” value was 132.901%.
With COc1cc(C2C(C(=O)c3cccs3)=C(O)C(=O)N2Cc2cccnc2)ccc1O (stereo not drawn) [CBK264605] the “% of control remaining” value was 97.3337%.
In the case of Cc1sc2ncn(CC(=O)Nc3cccnc3)c(=O)c2c1C [CBK306057], the “% of control remaining” value was 114.977%.
COc1ccc(S(=O)(=O)NCCCN2CCOCC2)c(Cl)c1Cl [CBK269792] was tested, and the “% of control remaining” value was 127.966%.
N#CC(C(=O)CN1CCCC1)c1ccccc1 (stereo not drawn) [CBK269333] was tested, and the “% of control remaining” value was 158.743%.
For O=C(O)c1ccc2c(c1)C1C=CCC1C(c1cccc([N+](=O)[O-])c1)N2 (stereo not drawn) [CBK287008], the “% of control remaining” value was 133.292%.
CSCCC(NC(=O)c1ccccc1NC(=O)c1ccc(C)cc1)C(=O)O (stereo not drawn) [CBK296067] was tested, and the “% of control remaining” value was 140.208%.
With CCCn1ccnc1SCC(=O)Nc1ccc(N(C)C)cc1 [CBK304996] the “% of control remaining” value was 108.629%.
With Cn1c2c(c3ccccc31)C(=O)NCC2 [CBK003517] the “% of control remaining” value was 164.833%.
With Cc1cccc(N(CC(=O)Nc2cccnc2)S(=O)(=O)c2ccc(Cl)cc2)c1 [CBK268676] the “% of control remaining” value was 116.886%.
CCN(CC)C(=O)CN1CCC(c2ccc(F)cc2)CC1 [CBK285475] was tested, and the “% of control remaining” value was 115.826%.
In the case of Cc1noc(C)c1S(=O)(=O)Nc1cccc(C(=O)N2CCN(C)CC2)c1 [CBK038972], the “% of control remaining” value was 107.832%.
Cc1cc(Cl)c(OCCN2CCCCCC2)c(Br)c1 [CBK266049G] was tested, and the “% of control remaining” value was 109.391%.
In the case of O=C(Cn1cc(C(=S)N2CCOCC2)c2ccccc21)Nc1ccc2c(c1)OCO2 [CBK266703], the “% of control remaining” value was 172.34%.
For O=C(C1CCCC1)N1C[C@@H]2CCCCN(CC3CC3)[C@@H]2C1 [CBK285493], the “% of control remaining” value was 122.521%.
CN1CCC(CNC(=O)C2(c3ccccc3F)CC2)(N(C)C)CC1 [CBK282604] was tested, and the “% of control remaining” value was 115.864%.
For O=C(c1nccs1)C1CCN(C(=O)Cc2ccccc2F)CC1 [CBK284161], the “% of control remaining” value was 123.846%.
For CC(C)(C)NC(=O)c1ccc(-n2ccnc2)c(-n2cccc2)c1 [CBK284811], the “% of control remaining” value was 126.975%.
For Cc1ccc(NC(=O)c2ccc(-c3cccc([N+](=O)[O-])c3)o2)cc1-c1nc2ncccc2o1 [CBK262947], the “% of control remaining” value was 121.399%.
In the case of O=C(O)CCc1ccc(S(=O)(=O)N2CCOCC2)cc1 [CBK287224], the “% of control remaining” value was 113.288%.
In the case of CC(C)(C)c1ccc(-c2nc(N)cc3ccccc23)cc1 [CBK085720], the “% of control remaining” value was 57.4339%.
For CCCC(=O)c1ccc(S(=O)(=O)N2CCCN(Cc3ccc(C#N)cc3)CC2)cc1 [CBK062895], the “% of control remaining” value was 67.7976%.
For O=C(C1CCCC1)N1CCCc2cc(C(O)CN3CCCC3)ccc21 (stereo not drawn) [CBK282145], the “% of control remaining” value was 135.753%.
With CN(C)CCOCCS(=O)(=O)c1ccc(N2CCC(c3ccc(Cl)cc3)=N2)cc1 [CBK018115] the “% of control remaining” value was 94.4989%.
For Cc1cc(C)nc(Nc2ncc(O)n2-c2ccccc2C)n1 [CBK263024], the “% of control remaining” value was 100%.
COc1cccc(/C=C2/SC(=S)NC2=O)c1OCCCOc1ccccc1C [CBK264442] was tested, and the “% of control remaining” value was 129.826%.
Cc1nn(C)c(Cl)c1S(=O)(=O)NCc1ccc(C(F)(F)F)c(F)c1 [CBK062111] was tested, and the “% of control remaining” value was 108.416%.
For CC(=O)c1ccc(-c2ccc(C(=O)NCCc3ccc(S(N)(=O)=O)cc3)c(N(C)C(C)=O)n2)s1 [CBK076621], the “% of control remaining” value was 152.934%.
In the case of CS(=O)(=O)Nc1ccc(C(=O)N2CC(=O)Nc3ccccc32)cc1 [CBK269827], the “% of control remaining” value was 90.6079%.
With Cc1c(-c2cccc(Cl)c2)nc2ccccc2c1C(=O)NCCc1ccc(S(N)(=O)=O)cc1 [CBK267784] the “% of control remaining” value was 105.679%.
In the case of Clc1ccc(CN2CCN(c3nccnc3OCc3cccnc3)CC2)cc1Cl [CBK083128T], the “% of control remaining” value was 117.28%.
Cc1ccc(C(=O)Nc2cccc(-c3nc4ncccc4o3)c2C)cc1[N+](=O)[O-] [CBK262793] was tested, and the “% of control remaining” value was 118.14%.
